{"source": "patent US20190389843A1", "about": "“PYRROLE mTORC INHIBITORS AND USES THEREOF” (Navitor Pharmaceuticals, Inc., priority 2016, published 2019)", "origin": "cited, not measured here", "system": "Lmna-/- mice", "settings": "short-term treatment; cited from earlier work", "note": "At least one structure is not confirmed: it was looked up by name or label, or the drawing left a doubt.", "data": [{"smiles": "CO[C@H]1C[C@@H]2CC[C@@H](C)[C@@](O)(O2)C(=O)C(=O)N2CCCC[C@H]2C(=O)O[C@H]([C@H](C)C[C@@H]2CC[C@@H](O)[C@H](OC)C2)CC(=O)[C@H](C)/C=C(\\C)[C@@H](O)[C@@H](OC)C(=O)[C@H](C)C[C@H](C)/C=C/C=C/C=C/1C", "note": "[rapamycin]", "values": [{"measurement": "enhanced survival", "result": "~50", "unit": "%"}]}]}
